PubChem BioAssay AID1259405 – NCATS – 2018

- Screen: 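Mouse-designed siRNAs used to find CHO productivity engineering targets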 (primary screen)
- Cells: Chinese hamster CHO-K1 ovary cells with stable secreted eGFP expression
- Reagents: single siRNA against mouse genes, 0.8 pmol siRNA per well (2 µl of 400 nM stock)
- Timing: 3 days
- Measurement: 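Percent of the per-plate non-targeting control median for intracellular GFP per well by laser scanning cytometry and for cell viability by ATP luminescence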
- Reading the numbers: GFP, % of control: higher = more GFP per well, higher productivity; viability (ATP), % of control: higher = more viable cells (more ATP)
- Active means: 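Called active when intracellular GFP, relative to negative control, is at or above 120%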
The whole screen tested about 50,000 reagents; below is an unselected part. About 4,000 of them (8%) were called active. 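Mouse siRNA library applied to hamster cells; one well for each siRNA.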 A number with no mark means an inactive call. The numbers tell different reagents against one gene apart.

Against Arhgap33os #1, the values are GFP, % of control 59.7; viability (ATP), % of control 65.1.
After knock-down of Arhgap33os #2, the screen gave GFP, % of control 95.2; viability (ATP), % of control 67.4.
With knock-down of Arhgap33os #3, the screen gave GFP, % of control 33; viability (ATP), % of control 61.
Knock-down of Slc2a13 #1 gave: GFP, % of control 69.3; viability (ATP), % of control 76.7.
Against Slc2a13 #2 the deposit lists GFP, % of control 80.5; viability (ATP), % of control 55.3.
With knock-down of Slc2a13 #3, the screen gave GFP, % of control 76.7; viability (ATP), % of control 62.6.
After knock-down of Tln1 #1, the record shows GFP, % of control 74.2; viability (ATP), % of control 90.6.
Tln1 #2 showed GFP, % of control 85.1; viability (ATP), % of control 88.9.
With knock-down of Ythdf1 #1, the screen gave GFP, % of control 47.7; viability (ATP), % of control 57.
Knock-down of Ythdf1 #2 came out at: GFP, % of control 66.3; viability (ATP), % of control 79.3.
With knock-down of Ythdf1 #3, the record shows GFP, % of control 60.6; viability (ATP), % of control 103.
Against Lancl2 #1, the values are GFP, % of control 71.4; viability (ATP), % of control 74.
Lancl2 #2 gave GFP, % of control 62.7; viability (ATP), % of control 69.
Knock-down of Lancl2 #3 came out at: GFP, % of control 76.6; viability (ATP), % of control 71.7.
With knock-down of Ddx19b #1, the record shows GFP, % of control 94.5; viability (ATP), % of control 52.2.
Ddx19b #2 gave GFP, % of control 68.9; viability (ATP), % of control 41.8.
Depletion of Ddx19b #3 gave: GFP, % of control 73.4; viability (ATP), % of control 76.1.
Mpl #1 scored GFP, % of control 91.8; viability (ATP), % of control 94.7.
Mpl #2 showed GFP, % of control 60.8; viability (ATP), % of control 63.8.
Mpl #3 showed GFP, % of control 69.2; viability (ATP), % of control 75.2.
Against Rcan3 #1, the values are GFP, % of control 79.7; viability (ATP), % of control 54.6.
Depletion of Rcan3 #2 resulted in: GFP, % of control 106; viability (ATP), % of control 107.
Septin8 #1 scored GFP, % of control 114; viability (ATP), % of control 85.1.
Septin8 #2 scored GFP, % of control 102; viability (ATP), % of control 112.
Against Unc119b #1, the values are GFP, % of control 30.4; viability (ATP), % of control 45.5.
Unc119b #2 showed GFP, % of control 84.1; viability (ATP), % of control 87.9.
After knock-down of Unc119b #3 the results were GFP, % of control 73.4; viability (ATP), % of control 78.9.
With knock-down of Apoe #1 the results were GFP, % of control 96.7; viability (ATP), % of control 61.2.
Knock-down of Apoe #2 resulted in: GFP, % of control 59.4; viability (ATP), % of control 72.2.
For Apoe #3, the values are GFP, % of control 61; viability (ATP), % of control 57.2.
Depletion of Or6d12 #1 gave: GFP, % of control 101; viability (ATP), % of control 74.7.
With knock-down of Or6d12 #2 the results were GFP, % of control 83.9; viability (ATP), % of control 89.7.
Knock-down of Or6d12 #3 came out at: GFP, % of control 81; viability (ATP), % of control 64.6.
Dpf3 #1 showed GFP, % of control 95.1; viability (ATP), % of control 90.9.
Dpf3 #2 gave GFP, % of control 88.4; viability (ATP), % of control 63.3.
With knock-down of Dpf3 #3, the record shows GFP, % of control 38.4; viability (ATP), % of control 64.4.
For Wdr59 #1, the values are GFP, % of control 118; viability (ATP), % of control 98.9.
For Wdr59 #2 the deposit lists GFP, % of control 70.9; viability (ATP), % of control 83.5.
Silencing of Wdr59 #3 resulted in: GFP, % of control 114; viability (ATP), % of control 106.
After knock-down of Abtb3 #1, the record shows GFP, % of control 67.8; viability (ATP), % of control 48.7.
Abtb3 #2 showed GFP, % of control 77.8; viability (ATP), % of control 79.
For Abtb3 #3, the values are GFP, % of control 56.6; viability (ATP), % of control 52.1.

2 entries already listed, sorted by “GFP, % of control”, lowest first:
Mpl #2 — GFP, % of control = 60.8; viability (ATP), % of control = 63.8
Mpl #3 — GFP, % of control = 69.2; viability (ATP), % of control = 75.2
